# The campaign covered roughly 300,000 compounds. About 5,400 (1.8%) were called active. This list was built around the results that the source calls inconclusive (neither active nor inactive); the mix of calls is not that of the screen. The call rests on the fitted dose curve; tested in HEK293 cells. A potency beside an inconclusive call is a rough fit, not a confirmed value.
# Assay: qHTS for inhibitors of binding or entry into cells for Marburg Virus
# Settings: Marburg virus pseudotyped entry inhibition, cell reporter; series mostly up to 37.8 µM
# Potency means the concentration at half of the fitted maximal effect.
row,Structure (SMILES),Potency
1,Cc1cc(C)n2nc(N)c(N=Nc3cccc(Cl)c3)c2n1,"inconclusive: 10 µM [inhibitor, partial curve, poor fit]"
2,O=C(CSc1nc2ccccc2n1CC(=O)N1CCCC1)Nc1ccc2c(c1)OCO2,inactive
3,CC(=O)c1sc(NCc2ccc(C)cc2)nc1C,active: 10 µM
4,CC(C)CCNC(=O)C(c1ccco1)N(Cc1cccs1)C(=O)Cn1nnc2ccccc21 (stereo not drawn),inactive
5,NC(=O)CSc1nnc(NC(=O)c2ccc(S(=O)(=O)N3CCCCC3)cc2)s1,"inconclusive: 0.447 µM [activator, partial curve, poor fit]"
6,Nn1c(Cc2cccc3ccccc23)nnc1SCCOc1ccc(Br)cc1,"inconclusive: 0.891 µM [inhibitor, full curve, poor fit]"
7,Cc1ccccc1OCCNC(=S)Nc1ccccc1,"inconclusive: 7.94 µM [inhibitor, partial curve, poor fit]"
8,CCn1c(SCC(=O)c2[nH]c(C)c(C(C)=O)c2C)nnc1-c1ccccc1,"inconclusive: 15.8 µM [inhibitor, partial curve, poor fit]"
9,C[C@@H]1N[S+](=O)([O-])c2cccc(Cl)c2O[C@H]1c1ccccc1,"inconclusive: 35.3 µM [activator, single point]"
10,Cc1cc(C)nc(SCC(=O)Nc2sc3c(c2C#N)CCC(C)C3)n1 (stereo not drawn),"inconclusive: 7.94 µM [inhibitor, partial curve, poor fit]"
11,COc1ccc(C(=O)NC(=S)NNC(=O)c2ccc(NC(C)=O)cc2)cc1Br,"inconclusive: 35.5 µM [inhibitor, partial curve, poor fit]"
12,CC(=O)/C(N=Nc1nc2c([nH]1)c(=O)n(C)c(=O)n2C)=C(\C)O,"inconclusive: 3.55 µM [inhibitor, full curve, poor fit]"
13,Cc1cccc(N2CCN(C(=O)C3CCN(S(=O)(=O)N4CCOCC4)CC3)CC2C)c1 (stereo not drawn),inactive
14,O=C(NCc1ccc(F)cc1)c1ccc(Nc2nc3ccccc3n3nnnc23)cc1,inactive
15,Cc1onc(NC(=O)CSCC(=O)O)c1Br,inactive
16,CCOCCn1c(N2CCCC2)nc2c1c(=O)n(C)c(=O)n2C,inactive
17,O=[N+]([O-])c1ccc(N2CCN(S(=O)(=O)c3ccccc3)CC2)cc1N1CCc2ccccc2C1,"inconclusive: 0.0891 µM [activator, full curve, poor fit]"
18,COCCN=C1Sc2nc3ccc(C)cc3cc2CN1Cc1ccco1,inactive
19,CCCN1CCC(=O)NC1=S,"inconclusive: 6.31 µM [inhibitor, single point]"
20,CCOC(=O)C1=C(C)NC2=C(C(=O)C(C(=O)OCC)C(c3ccccc3OC)C2)C1c1ccccn1 (stereo not drawn),inactive
21,COc1cccc(N(CC(=O)Nc2ccc3c(c2)OCO3)S(=O)(=O)c2ccccc2)c1,"inconclusive: 11.6 µM [inhibitor, single point]"
22,Cc1ccc(NC(=O)c2cc(C)n(-c3cccc(C)c3)c2C)cc1,active: 6.51 µM

row,Structure (SMILES),Potency
1,NC(N)=NN=C(c1ccc(F)cc1)c1ccc(C(F)(F)F)cc1,"inconclusive: 7.08 µM [inhibitor, full curve, poor fit]"
2,Cn1c(CCc2ccccc2)nnc1SCC(N)=O,"inconclusive: 0.891 µM [activator, single point]"
3,Cc1cc(CNC(=O)C2CCC(=O)N(Cc3cccc(C(F)(F)F)c3)C2)no1 (stereo not drawn),"inconclusive: 0.224 µM [activator, full curve, poor fit]"
4,COc1ccc(/C=C2\C(=O)N(Cc3ccc(F)cc3)CC(=O)N2Cc2ccccc2)cc1,"inconclusive: 25.1 µM [inhibitor, single point]"
5,CNC(=O)/C(C#N)=C/c1c(N2CCN(c3cccc(Cl)c3)CC2)nc2c(C)cccn2c1=O,inactive
6,O=C(NCc1cccnc1)/C(=C/c1ccc(-c2cccc(Cl)c2)o1)S(=O)(=O)c1ccccc1,"inconclusive: 4.47 µM [inhibitor, full curve, poor fit]"
7,COc1cccc(C(=O)N2CCN(c3ncccn3)CC2)c1,inactive
8,Cc1cc(C)nc(SCc2ccc(C(=O)N/N=C/c3cccc(O)c3O)cc2)n1,active: 7.31 µM
9,Cc1ccc(-c2ccc(C(=O)Nc3ccccc3)o2)c2ccccc12,inactive
10,COC(=O)c1ccccc1NC(=S)NC(=O)c1ccc2ccccc2c1,"inconclusive: 0.398 µM [inhibitor, partial curve, poor fit]"
11,COc1ccc(NC(=O)C23CC4CC(C2)CC(c2ccc(C)cc2)(C4)C3)cc1,"inconclusive: 3.16 µM [inhibitor, partial curve, poor fit]"
12,CCOc1ccc(N(CC(=O)NCCc2ccccc2)C(=O)CCC(=O)Nc2cc(C)ccn2)cc1,"inconclusive: 1.41 µM [inhibitor, partial curve, poor fit]"
13,CCc1ccccc1N1C(=O)CN(Cc2cc(OC)c(OC)c(OC)c2)C1=S,"inconclusive: 1.58 µM [inhibitor, full curve, poor fit]"
14,CCN(CC(=O)Nc1ccccc1C(=O)OC)S(=O)(=O)c1ccccc1,"inconclusive: 6.51 µM [inhibitor, single point]"
15,Cc1ccc(NC(=S)c2ccccc2)cc1,"inconclusive: 3.66 µM [activator, full curve, poor fit]"
16,O=C(CN1CCN(S(=O)(=O)N2CCCCCC2)CC1)Nc1cc(Cl)ccc1Cl,inactive
17,CCOC(=O)C(C)/C(C)=N/NC(=O)c1cc2ccccc2cc1O (stereo not drawn),"inconclusive: 35.5 µM [inhibitor, single point]"
18,COC(=O)c1ccc(N=C2S/C(=C\c3cc(C)n(-c4cccnc4)c3C)C(=O)N2C)cc1,"inconclusive: 35.5 µM [inhibitor, single point]"
19,NC(=S)Nc1ccc(C(F)(F)F)cc1Cl,"inconclusive: 1.26 µM [inhibitor, single point]"
20,COc1ccc(CN(CC(O)COc2cccc3[nH]cc(C)c23)C(C)(C)C)cc1 (stereo not drawn),inactive
21,CCC(=O)N/C(=N/c1nc(C)cc(C)n1)Nc1cccc(OC)c1,"inconclusive: 16.4 µM [inhibitor, partial curve, poor fit]"

# Nothing new here: an excerpt of the list.
row,Structure (SMILES),Potency
1,NC(N)=NN=C(c1ccc(F)cc1)c1ccc(C(F)(F)F)cc1,"inconclusive: 7.08 µM [inhibitor, full curve, poor fit]"
2,Cn1c(CCc2ccccc2)nnc1SCC(N)=O,"inconclusive: 0.891 µM [activator, single point]"
3,Cc1cc(CNC(=O)C2CCC(=O)N(Cc3cccc(C(F)(F)F)c3)C2)no1 (stereo not drawn),"inconclusive: 0.224 µM [activator, full curve, poor fit]"

# From PubChem BioAssay AID540276 (National Center for Advancing Translational Sciences (NCATS), 2011)
